Values joined by “and” are separate entries in the source; they are usually repeats but may differ in a detail not shown here. Equal entries are not always repeated. Further values from the same series stand in other lists.
Key:
[1] = Plasma toxicokinetics after single i.v. bolus; type: in vivo, Sprague-Dawley rats; settings: Rat Plasma, Anatabine 1.0 mg/kg
Method: (§1) Six rats (3 males and 3 females) were dosed per dose group. […] Plasma and brain homogenates were stored at −80° C. until analysis.
(§2) An additional 48 rats (24 males and 24 females) received a single intravenous dose via the tail vein at the same doses as mentioned above. At 30 and 360 minutes post administration, 6 rats (3 males and 3 females) per dose group, per time point were euthanized, bled via cardiac puncture, and perfused, and brains were collected. The brains were homogenized. Blood was spun, and plasma was collected. Plasma and brain homogenate were stored at −80° C.
Four aliquots of each dose level formulation were collected and stored at −80° C. The test compound, corresponding dose level, number of animals, and sample collection times for Phase I of the study are shown in Table 3. The test compound, corresponding dose level, number of animals, and sample collection times for Phase II of the study are shown in Table 4. The physical signs of each animal were monitored following administration of the test compound.
(§3) The animals were weighed prior to dosing and received a single i.v. dose of either test compound at a volume of 5 mL/kg. Blood was collected via the venus plexus (retro-orbital) into tubes containing (K2) EDTA. No more than 0.5 mL was collected per time point. […] The brain was removed, weighed, homogenized in sterile 0.9% saline at a volume equal to its weight, and stored at −80° C.
Plasma was separated according to the instructions for MICROTAINER® brand collection tubes (3 minutes, 2000×g). Plasma was decanted into microfuge tubes and stored at −80° C. Remaining test compound was stored at −80° C.
(§4) The amount of the test agent in the supernatant was determined by liquid chromatography tandem mass spectrometry (LC/MS/MS).
(§5) Analysis. Samples were analyzed by LC/MS/MS using an Agilent 6410 mass spectrometer coupled with an Agilent 1200 high pressure liquid chromatography (HPLC) and a CTC PAL chilled autosampler, all controlled by MassHunter software (Agilent). After separation on a hydrophilic interaction liquid chromatography (HILIC) HPLC column (Sepax) using an acetonitrile-ammonium acetate/acetic acid gradient system, peaks were analyzed by mass spectrometry (MS) using ESI ionization in multiple reaction monitoring (MRM) mode. MassHunter software was used to calculate the concentration of the test compounds in samples from the peak area using the appropriate calibration curves.

[2] = Brain extract concentrations after single i.v. bolus; type: in vivo, Sprague-Dawley rats; settings: for Concentration in rat brain extract: individual rats; for Avg. Conc. (Combined Male and Female) / Avg. Conc. (Male or Female): Rat Brain
Method: as §1, §2, §3, §4, §5

Which results are given for C1=CCC(c2cccnc2)NC1 (racemic) [Anatabine, 1,2,3,6-tetrahydro-[2,3′]bipyridinyl]?
Avg. Conc. (Male or Female) ([1]; female, 0.5 hr (2nd line)): 368.0 ng/mL; Avg. Conc. (Male or Female) ([1]; female, 1 hr): 229.0 ng/mL; Avg. Conc. (Male or Female) ([1]; female, 2 hr): 163.7 ng/mL; Avg. Conc. (Male or Female) ([1]; female, 4 hr): 60.7 ng/mL; Avg. Conc. (Male or Female) ([1]; female, 6 hr (1st line)): 29.3 ng/mL; Avg. Conc. (Male or Female) ([1]; female, 6 hr (2nd line)): 23.0 ng/mL; Avg. Conc. (Male or Female) ([1]; female, 8 hr): 17.7 ng/mL; Avg. Conc. (Male or Female) ([1]; male, 0.5 hr (2nd line)): 399.0 ng/mL; Avg. Conc. (Male or Female) ([1]; male, 1 hr): 233.7 ng/mL; Avg. Conc. (Male or Female) ([1]; male, 4 hr): 42.3 ng/mL; Avg. Conc. (Male or Female) ([1]; male, 6 hr (1st line)): 18.0 ng/mL; Avg. Conc. (Male or Female) ([1]; male, 6 hr (2nd line)): 27.0 ng/mL; Avg. Conc. (Male or Female) ([1]; male, 8 hr): 7.7 ng/mL; Concentration in rat brain extract ([2]; Anatabine 0.1 mg/kg dose group, time point 0.5 hr): 19 ng/mL and 21 ng/mL and 34 ng/mL and 25 ng/mL and 30 ng/mL; Concentration in rat brain extract ([2]; Anatabine 0.1 mg/kg dose group, time point 6 hr): 3 ng/mL and 5 ng/mL and 4 ng/mL and 2 ng/mL; Concentration in rat brain extract ([2]; Anatabine 0.1 mg/kg dose group, time point 24 hr): 3 ng/mL and 2 ng/mL; Concentration in rat brain extract ([2]; Anatabine 0.75 mg/kg dose group, time point 6 hr): 16 ng/mL and 28 ng/mL and 19 ng/mL and 17 ng/mL and 27 ng/mL and 20 ng/mL; Concentration in rat brain extract ([2]; Anatabine 1.0 mg/kg dose group, time point 6 hr): 3 ng/mL and 4 ng/mL (2×) and 8 ng/mL (2×); Concentration in rat brain extract ([2]; Anatabine 1.0 mg/kg dose group, time point 24 hr): 3 ng/mL and 2 ng/mL; Avg. Conc. (Combined Male and Female) ([2]; Anatabine 0.1 mg/kg, 6 hr): 3.5 ng/g; Avg. Conc. (Combined Male and Female) ([2]; Anatabine 0.1 mg/kg, 24 hr): 2.5 ng/g; Avg. Conc. (Male or Female) ([2]; Anatabine 0.1 mg/kg, female, 0.5 hr): 29.7 ng/g; Avg. Conc. (Male or Female) ([2]; Anatabine 0.1 mg/kg, female, 6 hr): 3.7 ng/g; Avg. Conc. (Male or Female) ([2]; Anatabine 0.1 mg/kg, female, 24 hr): 2.0 ng/g; Avg. Conc. (Male or Female) ([2]; Anatabine 0.1 mg/kg, male, 0.5 hr): 20.0 ng/g; Avg. Conc. (Male or Female) ([2]; Anatabine 0.1 mg/kg, male, 6 hr): 3.0 ng/g; Avg. Conc. (Male or Female) ([2]; Anatabine 0.1 mg/kg, male, 24 hr): 3.0 ng/g; Avg. Conc. (Combined Male and Female) ([2]; Anatabine 0.75 mg/kg, 0.5 hr): 295.3 ng/g; Avg. Conc. (Combined Male and Female) ([2]; Anatabine 0.75 mg/kg, 6 hr): 21.2 ng/g; Avg. Conc. (Male or Female) ([2]; Anatabine 0.75 mg/kg, female, 0.5 hr): 314.7 ng/g; Avg. Conc. (Male or Female) ([2]; Anatabine 0.75 mg/kg, female, 6 hr): 21.0 ng/g; Avg. Conc. (Male or Female) ([2]; Anatabine 0.75 mg/kg, male, 0.5 hr): 276.0 ng/g; Avg. Conc. (Male or Female) ([2]; Anatabine 0.75 mg/kg, male, 6 hr): 21.3 ng/g; Avg. Conc. (Combined Male and Female) ([2]; Anatabine 1.0 mg/kg, 0.5 hr): 334.5 ng/g; Avg. Conc. (Combined Male and Female) ([2]; Anatabine 1.0 mg/kg, 6 hr): 5.4 ng/g; Avg. Conc. (Combined Male and Female) ([2]; Anatabine 1.0 mg/kg, 24 hr): 2.5 ng/g; Avg. Conc. (Male or Female) ([2]; Anatabine 1.0 mg/kg, female, 0.5 hr): 346.0 ng/g; Avg. Conc. (Male or Female) ([2]; Anatabine 1.0 mg/kg, female, 6 hr): 6.0 ng/g; Avg. Conc. (Male or Female) ([2]; Anatabine 1.0 mg/kg, male, 0.5 hr): 323.0 ng/g; Avg. Conc. (Male or Female) ([2]; Anatabine 1.0 mg/kg, male, 6 hr): 5.0 ng/g; Avg. Conc. (Male or Female) ([2]; Anatabine 1.0 mg/kg, male, 24 hr): 2.5 ng/g; Mean concentration in rat brain extracts ([2]; single i.v. 0.1 mg/kg, female, 0.5 hr): 29.7 ± 4.5 ng/g; Mean concentration in rat brain extracts ([2]; single i.v. 0.1 mg/kg, female, 6 hr): 3.7 ± 1.5 ng/g; Mean concentration in rat brain extracts ([2]; single i.v. 0.1 mg/kg, female, 24 hr): 2.0 ng/g; Mean concentration in rat brain extracts ([2]; single i.v. 0.1 mg/kg, male, 0.5 hr): 20.0 ± 1.4 ng/g; Mean concentration in rat brain extracts ([2]; single i.v. 0.1 mg/kg, male, 6 hr): 3.0 ng/g; Mean concentration in rat brain extracts ([2]; single i.v. 0.1 mg/kg, male, 24 hr): 3.0 ng/g; Mean concentration in rat brain extracts ([2]; single i.v. 0.75 mg/kg, female, 0.5 hr): 314.7 ± 67.9 ng/g; Mean concentration in rat brain extracts ([2]; single i.v. 0.75 mg/kg, female, 6 hr): 21.0 ± 6.2 ng/g; Mean concentration in rat brain extracts ([2]; single i.v. 0.75 mg/kg, male, 0.5 hr): 276.0 ± 37.0 ng/g; Mean concentration in rat brain extracts ([2]; single i.v. 0.75 mg/kg, male, 6 hr): 21.3 ± 5.1 ng/g; Mean concentration in rat brain extracts ([2]; single i.v. 1.0 mg/kg, female, 0.5 hr): 346.0 ± 56.7 ng/g; Mean concentration in rat brain extracts ([2]; single i.v. 1.0 mg/kg, female, 6 hr): 6.0 ± 2.8 ng/g; Mean concentration in rat brain extracts ([2]; single i.v. 1.0 mg/kg, male, 0.5 hr): 323.0 ± 35.9 ng/g; Mean concentration in rat brain extracts ([2]; single i.v. 1.0 mg/kg, male, 6 hr): 5.0 ± 2.6 ng/g; Mean concentration in rat brain extracts ([2]; single i.v. 1.0 mg/kg, male, 24 hr): 2.5 ± 0.7 ng/g

— US20160030407A1, “Method of Treating Inflammatory Lung Disease” (priority 2010, published 2016)
